Laboratory results published in article PMC8551806.
The exact form of at least one protein or probe is not confirmed. At least one verdict was read from the data and is not stated in words by the source.

Amino acid sequences for entries named in this document (tags omitted). A change or cut given only in a name is not applied to a line headed by its entry.
UniProt A0MES8: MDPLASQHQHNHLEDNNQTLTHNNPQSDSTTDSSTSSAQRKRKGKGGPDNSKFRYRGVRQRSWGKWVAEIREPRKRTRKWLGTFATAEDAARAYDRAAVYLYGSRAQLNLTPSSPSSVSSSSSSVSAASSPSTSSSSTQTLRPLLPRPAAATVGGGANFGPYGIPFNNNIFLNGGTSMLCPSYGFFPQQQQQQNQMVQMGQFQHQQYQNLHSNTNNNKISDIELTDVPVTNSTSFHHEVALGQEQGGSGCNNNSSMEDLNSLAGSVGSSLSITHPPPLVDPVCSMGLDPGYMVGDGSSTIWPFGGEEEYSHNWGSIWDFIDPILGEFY

Target: ABI4 (AtABI4) (Arabidopsis thaliana (ecotype Col-0)) (UniProt A0MES8)
Test: EMSA
Conditions: LightShift chemiluminescent EMSA kit (Thermo); pH and temperature not stated; recombinant protein; residues 1-328; protein details: 7xHis (pET32a vector); label: biotin

Sequence: AATAAAAATCCACCGAACTATTATT (double strand) [Positive control probe (CE1 element of ARR6)]
- binding result: binds
